Measured values published in article doi:10.1101/2021.03.29.437469.
Results are given in words; binding and its absence hold for the method and conditions named. In cells and extracts the contact can be indirect. Some binding calls cover weakened binding; strength is not graded here. For some of these results: Tags and fused reporters may be left off the sequences shown.

Sequences of proteins named here, by UniProt entry; tags and fusion partners are left off.
UniProt P24783: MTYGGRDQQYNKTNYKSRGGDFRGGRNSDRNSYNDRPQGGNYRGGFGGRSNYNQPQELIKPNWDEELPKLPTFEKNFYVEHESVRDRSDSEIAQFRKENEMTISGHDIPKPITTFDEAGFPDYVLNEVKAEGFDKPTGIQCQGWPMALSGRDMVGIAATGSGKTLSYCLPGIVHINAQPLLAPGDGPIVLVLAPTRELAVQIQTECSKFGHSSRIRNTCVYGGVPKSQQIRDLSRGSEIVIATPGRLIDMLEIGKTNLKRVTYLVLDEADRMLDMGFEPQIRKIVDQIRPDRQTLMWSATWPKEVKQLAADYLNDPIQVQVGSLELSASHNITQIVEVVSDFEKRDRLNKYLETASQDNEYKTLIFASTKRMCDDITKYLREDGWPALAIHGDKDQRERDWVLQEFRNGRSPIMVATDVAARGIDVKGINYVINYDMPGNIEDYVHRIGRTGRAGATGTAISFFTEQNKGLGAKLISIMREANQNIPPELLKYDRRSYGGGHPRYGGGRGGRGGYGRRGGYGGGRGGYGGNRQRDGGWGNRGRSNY

T1: C-terminally TAP-tagged Cbc1p (S. cerevisiae) (UniProt P34160)
T1 sequence: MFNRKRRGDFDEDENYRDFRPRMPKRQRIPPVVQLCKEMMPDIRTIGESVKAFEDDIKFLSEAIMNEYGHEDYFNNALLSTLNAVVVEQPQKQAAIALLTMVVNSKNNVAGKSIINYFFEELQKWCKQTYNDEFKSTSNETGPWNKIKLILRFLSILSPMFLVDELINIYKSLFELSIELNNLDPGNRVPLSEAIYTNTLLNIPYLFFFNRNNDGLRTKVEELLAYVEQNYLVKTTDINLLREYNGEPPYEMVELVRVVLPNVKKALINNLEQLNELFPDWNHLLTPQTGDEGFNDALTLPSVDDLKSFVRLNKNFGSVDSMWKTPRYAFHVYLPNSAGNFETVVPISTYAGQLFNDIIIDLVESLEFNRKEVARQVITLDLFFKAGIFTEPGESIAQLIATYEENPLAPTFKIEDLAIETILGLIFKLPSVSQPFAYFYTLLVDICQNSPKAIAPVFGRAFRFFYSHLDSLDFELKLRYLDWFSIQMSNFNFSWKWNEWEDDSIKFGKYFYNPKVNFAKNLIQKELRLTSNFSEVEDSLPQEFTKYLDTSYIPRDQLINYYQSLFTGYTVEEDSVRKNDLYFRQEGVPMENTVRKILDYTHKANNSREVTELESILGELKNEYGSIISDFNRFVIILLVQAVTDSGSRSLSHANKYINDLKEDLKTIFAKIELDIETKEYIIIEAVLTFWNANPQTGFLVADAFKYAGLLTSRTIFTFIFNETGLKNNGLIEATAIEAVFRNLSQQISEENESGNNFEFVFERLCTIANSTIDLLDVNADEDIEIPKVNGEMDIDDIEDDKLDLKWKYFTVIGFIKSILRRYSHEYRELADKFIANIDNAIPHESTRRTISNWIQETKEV

T2: C-terminally TAP-tagged Tif4631p (S. cerevisiae) (UniProt P39935)
T2 sequence: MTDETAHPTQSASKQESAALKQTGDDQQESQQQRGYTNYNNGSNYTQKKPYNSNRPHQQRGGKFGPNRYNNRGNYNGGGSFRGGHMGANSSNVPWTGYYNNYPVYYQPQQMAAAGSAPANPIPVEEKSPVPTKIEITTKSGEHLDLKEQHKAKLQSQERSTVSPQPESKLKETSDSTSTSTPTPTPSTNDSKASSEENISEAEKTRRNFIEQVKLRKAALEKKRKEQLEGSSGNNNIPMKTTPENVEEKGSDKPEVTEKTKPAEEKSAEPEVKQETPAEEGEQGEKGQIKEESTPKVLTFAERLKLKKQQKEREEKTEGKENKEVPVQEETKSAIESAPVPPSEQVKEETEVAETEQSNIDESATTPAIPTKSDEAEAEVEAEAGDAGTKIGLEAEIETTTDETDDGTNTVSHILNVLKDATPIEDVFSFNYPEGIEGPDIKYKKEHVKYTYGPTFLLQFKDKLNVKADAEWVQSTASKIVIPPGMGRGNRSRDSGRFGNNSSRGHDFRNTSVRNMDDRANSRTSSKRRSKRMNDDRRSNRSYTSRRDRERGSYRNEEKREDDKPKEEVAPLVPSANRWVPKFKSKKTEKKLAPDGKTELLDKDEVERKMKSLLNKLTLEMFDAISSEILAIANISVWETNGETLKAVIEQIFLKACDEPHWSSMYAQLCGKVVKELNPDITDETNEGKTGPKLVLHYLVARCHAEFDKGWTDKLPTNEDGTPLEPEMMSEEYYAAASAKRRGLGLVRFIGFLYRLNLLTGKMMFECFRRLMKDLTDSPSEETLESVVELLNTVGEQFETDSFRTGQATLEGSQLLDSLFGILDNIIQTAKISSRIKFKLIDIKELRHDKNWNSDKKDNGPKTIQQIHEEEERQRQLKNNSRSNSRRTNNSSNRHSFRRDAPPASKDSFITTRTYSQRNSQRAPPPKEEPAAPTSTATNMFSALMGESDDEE

T3: Upf3p-HA (S. cerevisiae) (UniProt P48412)
T3 sequence: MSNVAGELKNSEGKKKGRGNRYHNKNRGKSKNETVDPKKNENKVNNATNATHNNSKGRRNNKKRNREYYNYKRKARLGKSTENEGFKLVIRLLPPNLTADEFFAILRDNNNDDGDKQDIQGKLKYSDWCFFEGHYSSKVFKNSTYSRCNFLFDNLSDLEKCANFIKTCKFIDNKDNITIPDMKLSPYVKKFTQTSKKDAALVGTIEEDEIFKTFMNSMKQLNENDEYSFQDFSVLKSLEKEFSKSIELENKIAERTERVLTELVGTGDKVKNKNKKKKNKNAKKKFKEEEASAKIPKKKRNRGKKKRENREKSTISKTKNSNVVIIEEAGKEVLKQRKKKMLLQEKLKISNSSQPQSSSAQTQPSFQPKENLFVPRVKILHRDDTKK

T4: TAP-tagged Tif4631p-ΔRRM1 (S. cerevisiae) (UniProt P39935)
T4 sequence: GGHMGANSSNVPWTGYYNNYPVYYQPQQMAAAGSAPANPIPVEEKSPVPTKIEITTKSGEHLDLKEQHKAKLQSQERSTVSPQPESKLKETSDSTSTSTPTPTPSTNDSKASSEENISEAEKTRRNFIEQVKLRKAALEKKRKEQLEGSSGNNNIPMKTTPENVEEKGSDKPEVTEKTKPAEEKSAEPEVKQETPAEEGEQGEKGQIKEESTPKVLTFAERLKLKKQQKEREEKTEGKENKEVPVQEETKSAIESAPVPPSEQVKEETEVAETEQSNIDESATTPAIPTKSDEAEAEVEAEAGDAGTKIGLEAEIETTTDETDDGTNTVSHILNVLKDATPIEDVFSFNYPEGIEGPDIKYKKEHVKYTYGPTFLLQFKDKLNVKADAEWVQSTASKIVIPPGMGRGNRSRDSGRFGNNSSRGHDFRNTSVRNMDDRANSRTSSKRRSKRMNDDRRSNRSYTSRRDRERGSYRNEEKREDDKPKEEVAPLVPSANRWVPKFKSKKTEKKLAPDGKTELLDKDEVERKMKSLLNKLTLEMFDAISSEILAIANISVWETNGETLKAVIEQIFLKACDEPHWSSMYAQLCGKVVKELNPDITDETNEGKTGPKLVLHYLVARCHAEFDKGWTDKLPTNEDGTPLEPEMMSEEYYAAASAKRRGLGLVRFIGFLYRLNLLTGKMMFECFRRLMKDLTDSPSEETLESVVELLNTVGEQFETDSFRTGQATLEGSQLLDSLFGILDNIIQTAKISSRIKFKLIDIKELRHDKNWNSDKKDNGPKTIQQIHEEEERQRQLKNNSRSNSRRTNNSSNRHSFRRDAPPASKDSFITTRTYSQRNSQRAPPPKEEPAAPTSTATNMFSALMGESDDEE


Experiments:
Test in all cases: co-IP
[1] = target: T1, C-terminally TAP-tagged Cbc1p (S. cerevisiae)
[2] = target: T2, C-terminally TAP-tagged Tif4631p (S. cerevisiae)
Upf3p-HA (S. cerevisiae) = target: T3, Upf3p-HA (S. cerevisiae)
[3] = target: C-terminally FLAG-tagged Dbp2p (S. cerevisiae) (UniProt P24783)
[4] = target: T4, TAP-tagged Tif4631p-ΔRRM1 (S. cerevisiae)

Row | Molecule | binding [1] | binding [2] | binding (Upf3p-HA (S. cerevisiae)) | binding [3] | binding [4]
1 | Dbp2p (from UniProt P24783 1-546) | binds | binds | binds |  | 
2 | Nrd1p (protein, UniProt P53617 1-575) MQQDDDFQNFVATLESFKDLKSGISGSRIKKLTTYALDHIDIESKIISLIIDYSRLCPDSHKLGSLYIIDSIGRAYLDETRSNSNSSSNKPGTCAHAINTLGEVIQELLSDAIAKSNQDHKEKIRMLLDIWDRSGLFQKSYLNAIRSKCFAMDISNNTANTASQQLSLDPKQRSKQILSNLKKSPPLNLNISLPTDLTSTDPAKQQAALFQVIAALQKHFKTLPSHTSVGTVAPPQAHTITEYGSRRERERERERYNSRRNRSRSPPAPFSQPSTGRKDRYPSVAQDQYSIGAPNTTFGTNNHHLYPDELNVSNNPHYRPKPVSYDSTLPPDHIKVYSRTLFIGGVPLNMKEWDLANVLKPFAEVQSVILNNSRKHAFVKVYSRHEAENVLQNFNKDGALPLRTRWGVGFGPRDCCDYQHGYSIIPMHRLTDADKKWSVSAQWGGTSGQPLVTGIVFEEPDIIVGEGVSSKAISQKMPTDSGRNGPRSGKPNKSGSISSISPVPYGNAPLASPPPQQYVQPMMQQPYGYAPNQPLPSQGPAAAAPPVPQQQFDPTAQLNSLMNMLNQQQQQQQQS | binds | binds | binds | binds | binds
3 | Cbc1p (protein, UniProt P34160 1-861) MFNRKRRGDFDEDENYRDFRPRMPKRQRIPPVVQLCKEMMPDIRTIGESVKAFEDDIKFLSEAIMNEYGHEDYFNNALLSTLNAVVVEQPQKQAAIALLTMVVNSKNNVAGKSIINYFFEELQKWCKQTYNDEFKSTSNETGPWNKIKLILRFLSILSPMFLVDELINIYKSLFELSIELNNLDPGNRVPLSEAIYTNTLLNIPYLFFFNRNNDGLRTKVEELLAYVEQNYLVKTTDINLLREYNGEPPYEMVELVRVVLPNVKKALINNLEQLNELFPDWNHLLTPQTGDEGFNDALTLPSVDDLKSFVRLNKNFGSVDSMWKTPRYAFHVYLPNSAGNFETVVPISTYAGQLFNDIIIDLVESLEFNRKEVARQVITLDLFFKAGIFTEPGESIAQLIATYEENPLAPTFKIEDLAIETILGLIFKLPSVSQPFAYFYTLLVDICQNSPKAIAPVFGRAFRFFYSHLDSLDFELKLRYLDWFSIQMSNFNFSWKWNEWEDDSIKFGKYFYNPKVNFAKNLIQKELRLTSNFSEVEDSLPQEFTKYLDTSYIPRDQLINYYQSLFTGYTVEEDSVRKNDLYFRQEGVPMENTVRKILDYTHKANNSREVTELESILGELKNEYGSIISDFNRFVIILLVQAVTDSGSRSLSHANKYINDLKEDLKTIFAKIELDIETKEYIIIEAVLTFWNANPQTGFLVADAFKYAGLLTSRTIFTFIFNETGLKNNGLIEATAIEAVFRNLSQQISEENESGNNFEFVFERLCTIANSTIDLLDVNADEDIEIPKVNGEMDIDDIEDDKLDLKWKYFTVIGFIKSILRRYSHEYRELADKFIANIDNAIPHESTRRTISNWIQETKEV |  | binds | binds | binds | 

Second part, the molecule after the results:

Row | binding [1] | binding [2] | binding (Upf3p-HA (S. cerevisiae)) | binding [3] | binding [4] | Molecule
4 | binds | binds | binds | binds | no binding | Rrp4p (protein, UniProt P38792 1-359) MSEVITITKRNGAFQNSSNLSYNNTGISDDENDEEDIYMHDVNSASKSESDSQIVTPGELVTDDPIWMRGHGTYFLDNMTYSSVAGTVSRVNRLLSVIPLKGRYAPETGDHVVGRIAEVGNKRWKVDIGGKQHAVLMLGSVNLPGGILRRKSESDELQMRSFLKEGDLLNAEVQSLFQDGSASLHTRSLKYGKLRNGMFCQVPSSLIVRAKNHTHNLPGNITVVLGVNGYIWLRKTSQMDLARDTPSANNSSSIKSTGPTGAVSLNPSITRLEEESSWQIYSDENDPSISNNIRQAICRYANVIKALAFCEIGITQQRIVSAYEASMVYSNVGELIEKNVMESIGSDILTAEKMRGNGN
5 | binds | binds |  | binds |  | Upf3p (protein, UniProt P48412 1-387) MSNVAGELKNSEGKKKGRGNRYHNKNRGKSKNETVDPKKNENKVNNATNATHNNSKGRRNNKKRNREYYNYKRKARLGKSTENEGFKLVIRLLPPNLTADEFFAILRDNNNDDGDKQDIQGKLKYSDWCFFEGHYSSKVFKNSTYSRCNFLFDNLSDLEKCANFIKTCKFIDNKDNITIPDMKLSPYVKKFTQTSKKDAALVGTIEEDEIFKTFMNSMKQLNENDEYSFQDFSVLKSLEKEFSKSIELENKIAERTERVLTELVGTGDKVKNKNKKKKNKNAKKKFKEEEASAKIPKKKRNRGKKKRENREKSTISKTKNSNVVIIEEAGKEVLKQRKKKMLLQEKLKISNSSQPQSSSAQTQPSFQPKENLFVPRVKILHRDDTKK
